Measured values reported in publication PMC6925160.
These are yes or no findings as the source states them, for the method shown. Binding seen in cells or lysates may run through a third protein. Some binding calls cover weakened binding; strength is not graded here.

Sequences of proteins named here, by UniProt entry; tags and fusion partners are left off.
UniProt P39447: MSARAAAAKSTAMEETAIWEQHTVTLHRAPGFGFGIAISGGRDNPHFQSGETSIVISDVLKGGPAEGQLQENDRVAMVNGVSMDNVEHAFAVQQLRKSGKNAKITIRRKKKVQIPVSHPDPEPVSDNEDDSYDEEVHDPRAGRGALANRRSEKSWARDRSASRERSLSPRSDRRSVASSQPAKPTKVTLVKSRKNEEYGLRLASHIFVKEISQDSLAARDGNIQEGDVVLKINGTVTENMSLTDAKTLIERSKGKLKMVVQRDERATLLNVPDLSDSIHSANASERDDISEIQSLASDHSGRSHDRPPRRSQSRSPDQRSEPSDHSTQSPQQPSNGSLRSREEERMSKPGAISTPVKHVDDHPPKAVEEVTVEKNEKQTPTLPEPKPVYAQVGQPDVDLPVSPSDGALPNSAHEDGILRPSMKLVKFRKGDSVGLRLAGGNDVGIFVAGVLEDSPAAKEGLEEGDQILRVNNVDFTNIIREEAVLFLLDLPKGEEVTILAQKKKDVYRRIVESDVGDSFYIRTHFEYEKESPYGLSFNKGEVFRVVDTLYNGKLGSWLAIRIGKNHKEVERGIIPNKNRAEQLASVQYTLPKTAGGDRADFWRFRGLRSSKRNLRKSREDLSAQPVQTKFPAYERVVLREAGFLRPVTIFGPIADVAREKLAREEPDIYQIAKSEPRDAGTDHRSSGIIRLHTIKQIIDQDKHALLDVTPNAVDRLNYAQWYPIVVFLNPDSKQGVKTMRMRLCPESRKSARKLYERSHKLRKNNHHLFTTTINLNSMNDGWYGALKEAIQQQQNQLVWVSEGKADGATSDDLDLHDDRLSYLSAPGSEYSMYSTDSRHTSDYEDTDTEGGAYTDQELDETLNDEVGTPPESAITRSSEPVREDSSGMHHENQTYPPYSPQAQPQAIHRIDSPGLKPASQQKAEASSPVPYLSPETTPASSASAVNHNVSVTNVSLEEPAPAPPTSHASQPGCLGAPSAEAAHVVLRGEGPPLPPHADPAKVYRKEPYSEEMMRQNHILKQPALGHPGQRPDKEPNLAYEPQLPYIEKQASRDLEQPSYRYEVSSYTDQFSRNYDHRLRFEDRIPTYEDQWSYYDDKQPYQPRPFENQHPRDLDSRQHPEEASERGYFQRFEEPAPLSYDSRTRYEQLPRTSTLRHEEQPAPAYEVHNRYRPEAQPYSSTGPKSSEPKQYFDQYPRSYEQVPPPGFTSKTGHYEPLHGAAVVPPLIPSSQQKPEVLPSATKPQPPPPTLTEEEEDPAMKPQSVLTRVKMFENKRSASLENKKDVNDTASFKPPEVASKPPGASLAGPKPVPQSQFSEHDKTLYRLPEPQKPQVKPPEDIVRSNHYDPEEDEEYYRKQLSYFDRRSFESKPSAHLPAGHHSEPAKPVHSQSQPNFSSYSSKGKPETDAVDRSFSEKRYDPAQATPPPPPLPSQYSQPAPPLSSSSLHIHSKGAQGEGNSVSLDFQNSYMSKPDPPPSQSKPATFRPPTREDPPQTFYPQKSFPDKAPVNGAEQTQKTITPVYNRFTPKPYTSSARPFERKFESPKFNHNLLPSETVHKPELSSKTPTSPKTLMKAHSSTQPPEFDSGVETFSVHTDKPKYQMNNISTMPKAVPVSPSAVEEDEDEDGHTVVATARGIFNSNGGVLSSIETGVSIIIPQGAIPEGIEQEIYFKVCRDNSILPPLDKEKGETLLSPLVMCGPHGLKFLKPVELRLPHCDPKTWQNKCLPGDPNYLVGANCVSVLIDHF
UniProt Q9QZQ1: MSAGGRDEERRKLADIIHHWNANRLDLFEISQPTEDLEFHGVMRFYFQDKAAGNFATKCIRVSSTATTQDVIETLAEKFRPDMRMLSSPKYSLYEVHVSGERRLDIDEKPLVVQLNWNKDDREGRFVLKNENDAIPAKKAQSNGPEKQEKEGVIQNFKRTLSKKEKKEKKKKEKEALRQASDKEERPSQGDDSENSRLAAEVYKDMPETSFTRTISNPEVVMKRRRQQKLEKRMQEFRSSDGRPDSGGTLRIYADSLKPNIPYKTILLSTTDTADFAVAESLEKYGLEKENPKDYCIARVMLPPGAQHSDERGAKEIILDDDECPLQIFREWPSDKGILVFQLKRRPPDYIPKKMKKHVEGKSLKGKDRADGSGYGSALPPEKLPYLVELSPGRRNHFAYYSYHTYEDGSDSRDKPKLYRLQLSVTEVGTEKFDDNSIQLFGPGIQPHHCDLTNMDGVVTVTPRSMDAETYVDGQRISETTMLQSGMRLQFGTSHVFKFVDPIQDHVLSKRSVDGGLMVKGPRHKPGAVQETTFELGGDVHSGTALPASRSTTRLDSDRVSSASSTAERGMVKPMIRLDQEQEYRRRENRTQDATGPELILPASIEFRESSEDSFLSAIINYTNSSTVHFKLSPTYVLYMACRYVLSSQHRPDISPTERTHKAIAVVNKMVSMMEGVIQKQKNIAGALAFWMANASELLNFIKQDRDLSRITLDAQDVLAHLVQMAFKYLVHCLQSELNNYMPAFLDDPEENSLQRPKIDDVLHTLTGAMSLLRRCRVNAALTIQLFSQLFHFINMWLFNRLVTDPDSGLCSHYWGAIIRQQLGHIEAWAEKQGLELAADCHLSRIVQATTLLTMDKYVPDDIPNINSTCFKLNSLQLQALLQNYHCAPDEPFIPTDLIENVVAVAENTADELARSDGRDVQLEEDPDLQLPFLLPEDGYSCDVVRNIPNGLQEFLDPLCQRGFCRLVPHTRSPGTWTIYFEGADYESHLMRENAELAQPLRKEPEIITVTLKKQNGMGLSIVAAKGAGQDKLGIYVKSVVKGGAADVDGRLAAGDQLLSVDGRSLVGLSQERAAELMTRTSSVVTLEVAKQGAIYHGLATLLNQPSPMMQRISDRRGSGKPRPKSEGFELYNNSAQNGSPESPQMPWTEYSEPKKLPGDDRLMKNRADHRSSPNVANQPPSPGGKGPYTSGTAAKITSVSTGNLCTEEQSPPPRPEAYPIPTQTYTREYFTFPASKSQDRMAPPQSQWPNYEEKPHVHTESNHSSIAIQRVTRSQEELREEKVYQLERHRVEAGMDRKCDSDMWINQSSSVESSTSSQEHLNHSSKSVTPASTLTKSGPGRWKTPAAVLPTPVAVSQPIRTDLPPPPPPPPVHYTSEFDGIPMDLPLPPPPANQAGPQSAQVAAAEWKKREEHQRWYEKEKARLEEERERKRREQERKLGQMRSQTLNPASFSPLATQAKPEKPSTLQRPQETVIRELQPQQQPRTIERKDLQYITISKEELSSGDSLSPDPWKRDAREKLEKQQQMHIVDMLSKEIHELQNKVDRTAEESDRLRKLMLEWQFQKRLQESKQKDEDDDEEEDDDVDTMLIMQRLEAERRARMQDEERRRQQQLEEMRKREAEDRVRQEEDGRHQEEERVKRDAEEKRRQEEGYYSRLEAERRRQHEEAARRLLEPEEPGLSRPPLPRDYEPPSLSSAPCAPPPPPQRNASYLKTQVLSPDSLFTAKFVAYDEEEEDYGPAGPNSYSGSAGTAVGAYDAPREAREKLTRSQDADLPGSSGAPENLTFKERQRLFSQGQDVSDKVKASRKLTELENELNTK

Key:
[1] = target: zonula occludens‐1 (ZO‐1) (mouse (endogenous in L cells)) (UniProt P39447); assay: co-IP; as a1, the 4 hr time point of wild-type EPEC infection alone (the complex is barely left)
[2] = target: zonula occludens‐1 (ZO‐1) (mouse (endogenous in L cells)) (UniProt P39447); assay: co-IP; L cells infected with EPECΔespF (MOI 5) for 4 hr; RIPA lysate precipitated with rabbit anti-ZO-1 antibody and protein A-agarose; blot for afadin
[3] = target: zonula occludens‐1 (ZO‐1) (mouse (endogenous in L cells)) (UniProt P39447); assay: co-IP; L cells infected with wild-type EPEC (MOI 5) for 1, 2, 3 and 4 hr; RIPA lysate (750 µg protein) precipitated with 1 µg rabbit anti-ZO-1 polyclonal antibody and protein A-agarose, 4°C; washes with RIPA, high-salt (500 mM NaCl) and low-salt buffer; blots for ZO-1, afadin and EspF

Which binding [1] does the source give for afadin (from UniProt Q9QZQ1 1-1820) here?
The binding was “binds weakly”.

What about the binding [2] of the same substance?
The binding was “binds weakly”.

What about the binding [3] of the same substance?
The binding was “binds”.

Which binding [3] does the source give for “EspF from enteropathogenic Escherichia coli (EPEC) E2348/69 (from UniProt B7UM88 1-206)” here?
The binding was “no binding”.
